Results: US20160076107A1
These are yes or no findings as the source states them, for the method shown. In cells and extracts the contact can be indirect. Some results given as binding are weak or reduced against the parent protein; the word gives no strength.

Key:
[1] = molecular target: GST-protein-fused Rho-binding domain of Rhotekin (GST-RBD) fixed on glutathione sepharose beads (UniProt Q9BST9); test: GST-RBD (Rhotekin) pull-down from NIH-3T3 cells overexpressing wild-type and G17V RHOA together, western blot
[2] = molecular target: GST-protein-fused Rho-binding domain of Rhotekin (GST-RBD) fixed on glutathione sepharose beads (UniProt Q9BST9); test: GST-RBD (Rhotekin) pull-down from NIH-3T3 lysate, western blot

binding [1]: binds
binding [2]: binds
Substance: wild-type RHOA (ras homolog family member A) protein, human (from UniProt P24406 1-193) (enzyme)
